Assay results as given in US7572809B2, “Isoquinoline aminopyrazole derivatives” (Hoffmann-La Roche Inc., priority 2005, dated 2009).
Some of these results come from one statement about several compounds together. Some compounds share one range, which may span the group rather than tell each member.

These molecules were tested against T1, Aurora A kinase (Homo sapiens, UniProt O14965) (assay: IC50 determination for inhibitors of Aurora A kinase (ELISA, GST-Histone H3 substrate)). Details: mutant Aurora A kinase, 30 μM ATP, 40 minutes.
T1 sequence (O14965 1-403): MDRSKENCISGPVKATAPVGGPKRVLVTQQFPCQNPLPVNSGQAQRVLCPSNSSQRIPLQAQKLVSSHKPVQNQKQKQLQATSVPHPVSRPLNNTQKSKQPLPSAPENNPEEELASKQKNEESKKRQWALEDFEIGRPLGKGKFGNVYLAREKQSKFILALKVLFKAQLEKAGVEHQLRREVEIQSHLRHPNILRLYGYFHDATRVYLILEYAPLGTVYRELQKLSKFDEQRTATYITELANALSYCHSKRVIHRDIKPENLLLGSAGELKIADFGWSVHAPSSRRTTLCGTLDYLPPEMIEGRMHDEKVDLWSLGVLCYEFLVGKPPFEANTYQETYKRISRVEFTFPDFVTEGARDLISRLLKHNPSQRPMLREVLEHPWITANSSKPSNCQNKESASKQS
Type: biochemical
Procedure: IC50 Determination for Inhibitors of Aurora A Kinase
Aurora A is a Serine Threonine Kinase Involved in Spindle Assembly and Chromosome Segregation.
The assay is a typically ELISA-type assay where substrate (GST-Histone H3) is coupled to the assay-plate and is phosphorylated by the kinase. Phosphorylation is detected by a mouse anti-Phosphopeptid mAb and an HRP-labeled anti-mouse pAb. The assay is validated for IC50-determination.
Kinase activities were measured by Enzyme-Linked Immunosorbent Assay (ELISA): Maxisorp 384-well plates (Nunc) were coated with recombinant fusion protein comprising residues 1-15 of HistoneH3 fused to the N-terminus of Glutathione-S-Transferase. Plates were then blocked with a solution of 1 mg/mL I-block (Tropix cat# T2015—highly purified form of casein) in phosphate-buffered saline. Kinase reactions were carried out in the wells of the ELISA plate by combining an appropriate amount of mutant Aurora A kinase with test compound and 30 μM ATP. The reaction buffer was […] Kinase Buffer (Cell Signaling cat # 9802) supplemented with 1 μg/mL I-block. Reactions were stopped after 40 minutes by addition of 25 mM EDTA (ethylenediaminetetraacetic acid). After washing, substrate phosphorylation was detected by addition of anti-phospho-Histone H3 (Ser 10) 6G3 mAb (Cell Signaling cat #9706) and sheep anti-mouse pAb-HRP (Amersham cat# NA931V), followed by colorimetric development with TMB (3,3′,5,5′-tetramethylbenzidine from Kirkegaard & Perry Laboratories). After readout of the absorbance, IC50 values were calculated using a non-linear curve fit (XLfit® software (ID Business Solution Ltd., Guilford, Surrey, UK)).

| Structure (SMILES) | IC50 Aurora A kinase inhibition |
| --- | --- |
| Cc1cc(Nc2cc3ccccc3c(Oc3ccccc3)n2)n[nH]1 [Example 11, (5-Methyl-1H-pyrazol-3-yl)-(1-phenoxy-isoquinolin-3-yl)-amine] | 1 to 15000 nM |
| Cc1cc(Nc2cc3ccccc3c(Oc3ccc(C#N)cc3)n2)n[nH]1 [Example 15, 4-[3-(5-methyl-1H-pyrazol-3-ylamino)-isoquinolin-1-yloxy]-benzonitrile] | 1 to 15000 nM |
| Cc1cc(Nc2cc3ccccc3c(Oc3ccc(Cl)cc3)n2)n[nH]1 [Example 16, [1-(4-Chloro-phenoxy)-isoquinolin-3-yl]-(5-methyl-1H-pyrazol-3-yl)-amine] | 1 to 15000 nM |
| Cc1cc(Nc2cc3ccccc3c(Oc3ccccc3C)n2)n[nH]1 [Example 21, (5-Methyl-1H-pyrazol-3-yl)-(1-o-tolyloxy-isoquinolin-3-yl)-amine] | 1 to 15000 nM |
| Cc1cc(Nc2cc3ccccc3c(OCC(C)C)n2)n[nH]1 [Example 26, (1-Isobutoxy-isoquinolin-3-yl)-(5-methyl-1H-pyrazol-3-yl)-amine] | 1 to 15000 nM |
| CCOCCOCCOc1nc(Nc2cc(C)[nH]n2)cc2ccccc12 [Example 27, {1-[2-(2-Ethoxy-ethoxy)-ethoxy]-isoquinolin-3-yl}-(5-methyl-1H-pyrazol-3-yl)-amine] | 1 to 15000 nM |
| COc1ccc2c(Oc3ccc(C)cc3)nc(Nc3cc(C)[nH]n3)cc2c1 [Example 38, (5-Methyl-1H-pyrazol-3-yl)-(1-p-tolyloxy-6-methoxy-isoquinolin-3-yl)-amine] | 1 to 15000 nM |
| COc1ccc2c(Oc3ccc(C#N)cc3)nc(Nc3cc(C)[nH]n3)cc2c1 [Example 39, 4-[3-(5-Methyl-1H-pyrazol-3-ylamino)-6-methoxy-isoquinolin-1-yloxy]-benzonitrile] | 1 to 15000 nM |
| COc1ccc2c(Oc3cccc(C)c3)nc(Nc3cc(C)[nH]n3)cc2c1 [Example 41, (5-Methyl-1H-pyrazol-3-yl)-(1-m-tolyloxy-6-methoxy-isoquinolin-3-yl)-amine] | 1 to 15000 nM |
| COc1ccc2c(OCC(C)C)nc(Nc3cc(C)[nH]n3)cc2c1 [Example 50, (1-Isobutoxy-6-methoxy-isoquinolin-3-yl)-(5-methyl-1H-pyrazol-3-yl)-amine] | 1 to 15000 nM |
| COc1ccc2c(OCCN3CCOCC3)nc(Nc3cc(C)[nH]n3)cc2c1 [Example 53, (5-Methyl-1H-pyrazol-3-yl)-[1-(2-morpholin-4-yl-ethoxy)-6-methoxy-isoquinolin-3-yl]-amine] | 1 to 15000 nM |
| COc1ccc2c(Oc3cccc(C#N)c3)nc(Nc3cc[nH]n3)cc2c1 [Example 55, 3-[6-Methoxy-3-(1H-pyrazol-3-ylamino)-isoquinolin-1-yloxy]-benzonitrile] | 1 to 15000 nM |
| COc1ccc2cc(Nc3cc(C)[nH]n3)nc(Oc3ccc(NC(C)=O)cc3)c2c1 [Example 61, N-{4-[7-Methoxy-3-(5-methyl-1H-pyrazol-3-ylamino)-isoquinolin-1-yloxy]-phenyl}-acetamide] | 1 to 15000 nM |
| COc1ccc(Oc2nc(Nc3cc(C)[nH]n3)cc3c(OC)cccc23)cc1 [Example 64, [5-Methoxy-1-(4-methoxy-phenoxy)-isoquinolin-3-yl]-(5-methyl-1H-pyrazol-3-yl)-amine] | 1 to 15000 nM |
| COc1cccc2c(Oc3ccc(C#N)cc3)nc(Nc3cc(C)[nH]n3)cc12 [Example 68, 4-[3-(5-Methyl-1H-pyrazol-3-ylamino)-5-methoxy-isoquinolin-1-yloxy]-benzonitrile] | 1 to 15000 nM |
| COc1ccc2cc(Nc3cc(C)[nH]n3)nc(OC)c2c1 [Example 71, (1-Methoxy-7-methoxy-isoquinolin-3-yl)-(5-methyl-1H-pyrazol-3-yl)-amine] | 1 to 15000 nM |
| COc1ccc2cc(Nc3cc(C)[nH]n3)nc(Oc3ccc(F)cc3)c2c1 [Example 74, [1-(4-Fluoro-phenoxy)-7-methoxy-isoquinolin-3-yl]-(5-methyl-1H-pyrazol-3-yl)-amine] | 1 to 15000 nM |
| COc1nc(Nc2cc(C)[nH]n2)cc2c(C)cccc12 [Example 78, (1-Methoxy-5-methyl-isoquinolin-3-yl)-(5-methyl-1H-pyrazol-3-yl)-amine] | 1 to 15000 nM |
| COc1ccc2c(Oc3ccc(NC(C)=O)cc3)nc(Nc3cc(C)[nH]n3)cc2c1OC [Example 97, N-{4-[5,6-Dimethoxy-3-(5-methyl-1H-pyrazol-3-ylamino)-isoquinolin-1-yloxy]-phenyl}-acetamide] | 1 to 15000 nM |
| c1ccc(COc2nc(Nc3cc[nH]n3)cc3ccccc23)cc1 [Example 109, (1-Benzyloxy-isoquinolin-3-yl)-(1H-pyrazol-3-yl)-amine] | 1 to 15000 nM |
| COc1ccc2c(Oc3ccc(F)cc3)nc(Nc3cc[nH]n3)cc2c1 [Example 120, [1-(4-Fluoro-phenoxy)-6-methoxy-isoquinolin-3-yl]-(1H-pyrazol-3-yl)-amine] | 1 to 15000 nM |
| COc1ccc2c(Oc3ccccc3F)nc(Nc3cc[nH]n3)cc2c1 [Example 122, [1-(2-Fluoro-phenoxy)-6-methoxy-isoquinolin-3-yl]-(1H-pyrazol-3-yl)-amine] | 1 to 15000 nM |
| COc1ccc(Oc2nc(Nc3cc[nH]n3)cc3cc(OC)ccc23)cc1 [Example 126, [6-Methoxy-1-(4-methoxy-phenoxy)-isoquinolin-3-yl]-(1H-pyrazol-3-yl)-amine] | 1 to 15000 nM |
| COc1ccc2c(OC(C)C)nc(Nc3cc[nH]n3)cc2c1 [Example 130, (1-Isopropoxy-6-methoxy-isoquinolin-3-yl)-(1H-pyrazol-3-yl)-amine] | 1 to 15000 nM |
| Cc1cc(Nc2cc3ccccc3c(-c3ccccc3)n2)n[nH]1 [Example 131, (5-Methyl-1H-pyrazol-3-yl)-(1-phenyl-isoquinolin-3-yl)-amine] | 1 to 15000 nM |
| Cc1cc(Nc2cc3ccccc3c(-c3ccc(C#N)cc3)n2)n[nH]1 [Example 136, 4-[3-(5-Methyl-1H-pyrazol-3-ylamino)-isoquinolin-1-yl]-benzonitrile] | 1 to 15000 nM |
| Cc1cc(Nc2cc3ccccc3c(-c3ccc(C(F)(F)F)cc3)n2)n[nH]1 [Example 138, (5-Methyl-1H-pyrazol-3-yl)-[1-(4-trifluoromethyl-phenyl)-isoquinolin-3-yl]-amine] | 1 to 15000 nM |
| Cc1cc(Nc2cc3ccccc3c(-c3cccc(C#N)c3)n2)n[nH]1 [Example 143, 3-[3-(5-Methyl-1H-pyrazol-3-ylamino)-isoquinolin-1-yl]-benzonitrile] | 1 to 15000 nM |
| CC(=O)c1ccc(-c2nc(Nc3cc(C)[nH]n3)cc3ccccc23)cc1 [Example 148, 1-{4-[3-(5-Methyl-1H-pyrazol-3-ylamino)-isoquinolin-1-yl]-phenyl}-ethanone] | 1 to 15000 nM |
| Cc1cc(Nc2cc3ccccc3c(-c3ccccc3F)n2)n[nH]1 [Example 149, [1-(2-Fluoro-phenyl)-isoquinolin-3-yl]-(5-methyl-1H-pyrazol-3-yl)-amine] | 1 to 15000 nM |
